Assay results as given in paper PMC10895342.

The chains behind the UniProt entries cited, without tags or fusion partners. Where a name states a change or a piece, a line headed by the entry shows the natural chain unless it says otherwise.
UniProt P42685: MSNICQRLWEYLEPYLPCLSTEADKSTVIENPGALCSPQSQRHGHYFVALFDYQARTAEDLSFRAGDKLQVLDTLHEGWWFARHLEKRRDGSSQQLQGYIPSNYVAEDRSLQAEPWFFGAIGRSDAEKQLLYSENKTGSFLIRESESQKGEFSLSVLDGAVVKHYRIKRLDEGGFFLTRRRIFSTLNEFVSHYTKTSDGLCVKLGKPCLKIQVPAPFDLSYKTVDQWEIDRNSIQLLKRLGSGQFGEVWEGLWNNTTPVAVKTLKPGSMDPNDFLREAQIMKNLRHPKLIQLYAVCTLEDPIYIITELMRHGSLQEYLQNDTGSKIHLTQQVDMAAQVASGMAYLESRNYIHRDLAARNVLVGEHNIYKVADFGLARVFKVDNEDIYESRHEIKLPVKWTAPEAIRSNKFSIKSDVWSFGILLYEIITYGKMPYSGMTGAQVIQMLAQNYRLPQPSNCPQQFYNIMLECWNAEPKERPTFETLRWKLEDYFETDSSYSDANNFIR
UniProt P01024: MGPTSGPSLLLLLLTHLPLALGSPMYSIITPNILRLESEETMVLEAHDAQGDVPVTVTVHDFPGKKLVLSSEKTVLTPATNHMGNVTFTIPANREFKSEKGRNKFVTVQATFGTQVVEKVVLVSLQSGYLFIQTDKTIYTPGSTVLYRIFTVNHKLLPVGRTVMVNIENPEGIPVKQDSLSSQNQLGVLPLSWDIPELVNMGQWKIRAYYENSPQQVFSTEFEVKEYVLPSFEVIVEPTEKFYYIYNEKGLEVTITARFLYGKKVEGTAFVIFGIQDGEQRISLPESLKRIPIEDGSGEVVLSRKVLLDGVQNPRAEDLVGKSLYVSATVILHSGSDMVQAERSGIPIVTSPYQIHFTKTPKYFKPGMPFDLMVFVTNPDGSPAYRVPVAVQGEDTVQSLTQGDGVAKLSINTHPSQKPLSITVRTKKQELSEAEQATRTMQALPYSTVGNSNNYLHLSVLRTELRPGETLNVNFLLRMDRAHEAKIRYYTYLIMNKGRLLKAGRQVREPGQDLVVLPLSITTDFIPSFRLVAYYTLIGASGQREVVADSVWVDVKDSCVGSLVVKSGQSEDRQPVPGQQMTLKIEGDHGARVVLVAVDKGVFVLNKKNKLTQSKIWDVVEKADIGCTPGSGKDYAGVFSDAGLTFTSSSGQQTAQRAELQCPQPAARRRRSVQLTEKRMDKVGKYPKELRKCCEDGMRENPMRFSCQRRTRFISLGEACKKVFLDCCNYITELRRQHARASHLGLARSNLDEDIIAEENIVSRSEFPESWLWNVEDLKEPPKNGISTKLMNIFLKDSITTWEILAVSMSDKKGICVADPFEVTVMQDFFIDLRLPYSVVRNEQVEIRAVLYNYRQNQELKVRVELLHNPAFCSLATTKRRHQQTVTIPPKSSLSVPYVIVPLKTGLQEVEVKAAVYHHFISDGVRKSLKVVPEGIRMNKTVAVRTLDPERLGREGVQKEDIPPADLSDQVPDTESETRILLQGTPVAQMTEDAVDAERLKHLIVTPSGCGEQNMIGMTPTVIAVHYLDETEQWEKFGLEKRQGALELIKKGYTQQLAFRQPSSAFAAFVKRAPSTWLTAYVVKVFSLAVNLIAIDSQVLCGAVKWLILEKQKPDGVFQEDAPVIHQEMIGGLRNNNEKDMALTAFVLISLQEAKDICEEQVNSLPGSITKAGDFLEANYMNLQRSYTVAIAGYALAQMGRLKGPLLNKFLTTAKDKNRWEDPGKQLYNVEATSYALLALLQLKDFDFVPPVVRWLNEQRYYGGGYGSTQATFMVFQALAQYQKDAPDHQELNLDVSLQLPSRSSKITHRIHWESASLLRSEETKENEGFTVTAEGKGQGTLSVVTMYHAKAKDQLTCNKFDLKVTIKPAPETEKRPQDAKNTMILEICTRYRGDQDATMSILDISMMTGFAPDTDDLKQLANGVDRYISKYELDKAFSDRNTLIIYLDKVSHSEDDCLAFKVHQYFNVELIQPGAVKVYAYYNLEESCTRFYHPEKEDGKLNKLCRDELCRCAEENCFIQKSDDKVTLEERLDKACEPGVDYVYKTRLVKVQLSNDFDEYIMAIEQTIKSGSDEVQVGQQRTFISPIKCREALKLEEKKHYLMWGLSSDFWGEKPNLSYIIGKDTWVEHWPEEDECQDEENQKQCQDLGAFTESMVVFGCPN

Biological target: human FRK expressed in INS-1 cells (human) (UniProt P42685)
Experiment: proximity ligation; Duolink PLA in INS-1 cells expressing human C3 (stable or cotransfected WT or ΔATG1 plasmid) and transfected with human FRK plasmid; mouse anti-human C3/C3a and goat anti-FRK primary antibodies

- binding: binds
Substance: ΔATG1 human C3 (cytosolic C3) (from UniProt P01024)

Results are given in words; binding and its absence hold for the method and conditions named. In cells and extracts the contact can be indirect. A result given as binding can be weak or reduced; the word gives no strength.
